From patent US20080318933A1, “5-Sulfonyl-1-Piperidinyl Substituted Indole Derivatives as 5-Ht6 Receptor Antagonists for the Treatment of Cns Disorders” (Glaxo Group Limited, priority 2004, published 2008)
Some results were stated once for a whole list of compounds, not compound by compound.

By UniProt entry, the sequences of proteins in these tests, tags left out.
UniProt P50406, whole entry: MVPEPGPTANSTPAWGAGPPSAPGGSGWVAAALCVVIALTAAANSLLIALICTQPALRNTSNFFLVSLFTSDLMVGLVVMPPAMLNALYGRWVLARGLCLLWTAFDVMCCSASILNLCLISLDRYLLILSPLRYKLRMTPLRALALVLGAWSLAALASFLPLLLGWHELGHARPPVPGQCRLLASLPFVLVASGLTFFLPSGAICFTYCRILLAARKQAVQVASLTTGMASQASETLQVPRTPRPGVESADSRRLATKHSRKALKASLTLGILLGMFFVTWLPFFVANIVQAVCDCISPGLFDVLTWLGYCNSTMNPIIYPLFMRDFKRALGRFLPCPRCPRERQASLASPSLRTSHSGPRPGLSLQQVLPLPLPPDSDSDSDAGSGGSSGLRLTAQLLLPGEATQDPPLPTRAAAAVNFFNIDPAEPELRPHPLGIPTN

Target: T1, human cloned 5-HT6 receptors (Homo sapiens, UniProt P50406)
T1 construct: expressed in transfected cells; host or cells: HeLa cells expressing cloned human 5-HT6 receptor (membranes)
Assay: Cyclase assay (cAMP production in membranes of HeLa 5HT6 cells, 5-HT stimulated)
Type: biochemical
Settings: 5-HT at 4xEC50, functional Ki by Cheng-Prusoff
Procedure: 0.5 μl of test compound in 100% dimethylsulfoxide (DMSO) was added to a white, solid 384 well assay plate (for dose response measurements the top of the concentration range is 7.5 μM final). 10 μl of washed membranes of HeLa 5HT6 cells (for preparation see WO 98/27081) in basic buffer (50 mM HEPES pH 7.4 (KOH), 10 mM MgCl2, 100 mM NaCl, 10 μM 3-isobutyl-1-methylxanthine (IBMX) (Sigma-Aldrich)) was added to all wells followed by 10 μl 2×ATP buffer (i.e. basic buffer containing 3 mM ATP) with 5-HT (at a concentration equivalent to a dose response of 4×EC50). The resultant mixture was then incubated at room temperature for 30-45 minutes to allow cAMP production. cAMP production was then measured using the DiscoveRX™ HitHunter™ chemiluminescence cAMP assay kit (DiscoveRx Corporation, 42501 Albrae Street, Fremont, Calif. 94538; Product Code: 90-0004L) or any other suitable cAMP measurement assay.
IC50 values were estimated from arbitrary designated unit (ADU) measurements from a Perkin Elmer Viewlux instrument using a four parameter logistic curve fit within EXCEL (Bowen, W. P. and Jerman, J. C. (1995), Nonlinear regression using spreadsheets. Trends in Pharmacol. Sci., 16, 413-417). […]

SMILES | pKi values
CCCN1CCC(N2CCc3cc(S(=O)(=O)c4ccc(F)c(F)c4)ccc32)CC1.Cl [Example E61, 5-[(3,4-Difluorophenyl)sulfonyl]-1-(1-propyl-4-piperidinyl)-2,3-dihydro-1H-indole hydrochloride] | > 6.5
CC(C)N1CCC(N2CCc3cc(S(=O)(=O)c4ccc(F)c(F)c4)ccc32)CC1.Cl [Example E62, 5-[(3,4-Difluorophenyl)sulfonyl]-1-(1-(1-methylethyl)-4-piperidinyl)-2,3-dihydro-1H-indole hydrochloride] | > 6.5
